Measured values as given in the supplement of paper PMC12889115.
This is one part of the list. These are raw signals, not scaled to a control.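 In the initial screen, polymyxin B was used at a concentration that permeabilizes Salmonella's outer membrane but not its inner membrane. Maximum growth was set by DMSO wells with or without polymyxin B. Since plates varied, data were ranked per plate, and compounds giving the lowest OD600 advanced as hits.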

Test system: Salmonella enterica serovar Typhimurium SL1344
Test: bacterial growth OD600 after 18 h with compound and polymyxin B; higher = more bacterial growth (less inhibition)
Details: 50 µM, Mueller-Hinton broth

| Compound | bacterial growth OD600 (polymyxin B 0.75 µg/mL) | bacterial growth OD600 (polymyxin B 1 µg/mL) |
| --- | --- | --- |
| CO[C@H]1[C@H](NC(=O)COc2ccccc2)c2ccccc2C12CCN(C(=O)c1ccc(C)c(C)c1)CC2 | 0.014 | – |
| CN(Cc1ccno1)CC1(O)CCCN(CC2CC2)C1=O (centres undefined) | – | 0.924 |
| Cc1ccccc1CN1CCC(C2CCN(c3ncccn3)CC2)C1 (centres undefined) | 0.758 | – |
| Cc1nonc1CN(C)C(=O)c1csc2nc(-c3ccc(C(F)(F)F)cc3)cn12 | – | 0.002 |
| Cc1nc(N2CCC(C(=O)NCCc3ccccc3Cl)CC2)nc2cc(S(C)(=O)=O)ccc12 | 0.78 | – |
| COCC(=O)Nc1cc(C(=O)N2CCCCC2c2nccn2C)c2c(c1)nc(C1CCC1)n2C (centres undefined) | 0.903 | – |
| OCCOc1ccccc1CN1CC[C@@H](N2CCCCCC2)[C@H](O)C1 | – | 0.949 |
| CC(C)c1cc(CN2CCC(N3CCC(C(=O)NCc4ccccn4)CC3)CC2)n[nH]1 | – | 1.07 |
| C[C@@H]1CN(C2(C(=O)N(C)Cc3nccs3)Cc3ccccc3C2)C[C@H](C)O1 | 0.758 | – |
| COc1ccccc1CNC(=O)c1c(OC)cc(=O)n2c1CCN(Cc1ccc(F)cc1)CC2 | 0.813 | – |
| CCOC(=O)C1(CCOC)CCN(Cc2cnn(-c3cccc(Cl)c3)c2)CC1 | – | 0.838 |
| COCCn1cnc2cc(NC(=O)C3CCCCC3)cc(C(=O)NCCCN3CCCC3=O)c21 | 0.975 | – |
| CN(CCO)C(=O)C1CCCN(c2nc(-c3ccccc3)nc3c2CCC3)C1 (centres undefined) | – | 0.908 |
| COCCN1CCCC2(CCN(C(=O)CC3=CCCCC3)C2)C1=O (centres undefined) | – | 0.884 |
| CCNCCC1CCC(=O)N1CCc1nc2ccccc2n1C (centres undefined) | 0.979 | – |
| COc1ccc(-c2cnnc(NCCc3nc(C)c(C)s3)n2)cc1 | 0.757 | – |
| O=C(c1csc2nc(-c3cccc(F)c3)cn12)N1CCCCCCC1 | – | 0.013 |
| C=CC[C@H]1CC(C)=C[C@H](CC=C)N1C(=O)CC1(c2cccc(OC)c2)CC(=O)N(CCOC)C1=O (some centres undefined) | 0.005 | – |
| CCc1ccc(CN(C)C(=O)c2cc(COc3ccc4ncccc4c3)on2)nc1 | – | 0.882 |

Shown bar-delimited: part of the list above.
Compound | bacterial growth OD600 (polymyxin B 0.75 µg/mL) | bacterial growth OD600 (polymyxin B 1 µg/mL)
Cc1ccccc1CN1CCC(C2CCN(c3ncccn3)CC2)C1 (centres undefined) | 0.758 | –
COc1ccc(-c2cnnc(NCCc3nc(C)c(C)s3)n2)cc1 | 0.757 | –
